Experimental data as given in the supplement of paper PMC12819154, “High-throughput peptide-centric local stability assay extends protein–ligand identification to membrane proteins, tissues and bacteria” (Nature Structural & Molecular Biology, 2025).
The list shows a part of the results. Small differences around the control level are noise.

Protein sequences, listed by entry. Tags and fused reporters are not part of them. Lines headed by an entry give the natural chain unless they say otherwise; changes in a name come on top.
UniProt Q921U8: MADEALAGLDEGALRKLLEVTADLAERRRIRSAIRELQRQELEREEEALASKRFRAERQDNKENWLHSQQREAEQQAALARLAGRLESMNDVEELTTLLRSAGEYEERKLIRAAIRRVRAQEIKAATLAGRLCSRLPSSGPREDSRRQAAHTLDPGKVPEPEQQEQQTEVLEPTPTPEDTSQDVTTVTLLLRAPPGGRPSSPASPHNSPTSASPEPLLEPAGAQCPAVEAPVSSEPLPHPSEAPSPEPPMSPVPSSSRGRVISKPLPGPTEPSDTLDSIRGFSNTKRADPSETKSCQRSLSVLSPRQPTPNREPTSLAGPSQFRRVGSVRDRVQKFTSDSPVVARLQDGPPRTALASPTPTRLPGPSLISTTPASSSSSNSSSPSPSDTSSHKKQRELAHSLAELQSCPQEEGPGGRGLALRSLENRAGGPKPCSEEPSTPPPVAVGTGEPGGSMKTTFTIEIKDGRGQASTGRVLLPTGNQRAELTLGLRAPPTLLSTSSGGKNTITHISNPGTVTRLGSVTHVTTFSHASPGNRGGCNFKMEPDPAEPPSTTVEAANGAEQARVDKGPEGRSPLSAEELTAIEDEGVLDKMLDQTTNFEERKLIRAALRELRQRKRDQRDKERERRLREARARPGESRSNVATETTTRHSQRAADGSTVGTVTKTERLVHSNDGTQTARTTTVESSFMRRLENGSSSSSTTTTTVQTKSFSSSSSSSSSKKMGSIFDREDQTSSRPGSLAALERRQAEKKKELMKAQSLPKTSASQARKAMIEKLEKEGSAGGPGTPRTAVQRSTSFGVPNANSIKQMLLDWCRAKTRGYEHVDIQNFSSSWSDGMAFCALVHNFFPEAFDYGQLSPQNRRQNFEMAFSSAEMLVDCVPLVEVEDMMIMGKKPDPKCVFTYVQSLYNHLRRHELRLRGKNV
UniProt Q99LC8: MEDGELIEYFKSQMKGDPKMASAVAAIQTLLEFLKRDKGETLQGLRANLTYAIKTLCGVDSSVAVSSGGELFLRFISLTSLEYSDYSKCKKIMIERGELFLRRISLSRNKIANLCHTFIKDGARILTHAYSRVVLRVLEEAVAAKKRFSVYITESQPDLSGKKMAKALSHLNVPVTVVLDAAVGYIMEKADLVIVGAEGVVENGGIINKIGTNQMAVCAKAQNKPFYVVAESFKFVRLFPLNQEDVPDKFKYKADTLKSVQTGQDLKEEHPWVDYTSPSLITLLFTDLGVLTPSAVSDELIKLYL
UniProt Q922B1: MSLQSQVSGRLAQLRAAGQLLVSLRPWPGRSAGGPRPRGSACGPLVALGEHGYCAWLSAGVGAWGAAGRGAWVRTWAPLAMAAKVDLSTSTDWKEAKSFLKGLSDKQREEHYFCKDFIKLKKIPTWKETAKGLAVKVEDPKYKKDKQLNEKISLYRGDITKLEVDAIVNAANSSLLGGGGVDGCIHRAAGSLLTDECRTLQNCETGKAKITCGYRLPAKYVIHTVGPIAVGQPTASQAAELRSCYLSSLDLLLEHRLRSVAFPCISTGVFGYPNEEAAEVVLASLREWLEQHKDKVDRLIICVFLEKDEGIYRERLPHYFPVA
UniProt Q922J3: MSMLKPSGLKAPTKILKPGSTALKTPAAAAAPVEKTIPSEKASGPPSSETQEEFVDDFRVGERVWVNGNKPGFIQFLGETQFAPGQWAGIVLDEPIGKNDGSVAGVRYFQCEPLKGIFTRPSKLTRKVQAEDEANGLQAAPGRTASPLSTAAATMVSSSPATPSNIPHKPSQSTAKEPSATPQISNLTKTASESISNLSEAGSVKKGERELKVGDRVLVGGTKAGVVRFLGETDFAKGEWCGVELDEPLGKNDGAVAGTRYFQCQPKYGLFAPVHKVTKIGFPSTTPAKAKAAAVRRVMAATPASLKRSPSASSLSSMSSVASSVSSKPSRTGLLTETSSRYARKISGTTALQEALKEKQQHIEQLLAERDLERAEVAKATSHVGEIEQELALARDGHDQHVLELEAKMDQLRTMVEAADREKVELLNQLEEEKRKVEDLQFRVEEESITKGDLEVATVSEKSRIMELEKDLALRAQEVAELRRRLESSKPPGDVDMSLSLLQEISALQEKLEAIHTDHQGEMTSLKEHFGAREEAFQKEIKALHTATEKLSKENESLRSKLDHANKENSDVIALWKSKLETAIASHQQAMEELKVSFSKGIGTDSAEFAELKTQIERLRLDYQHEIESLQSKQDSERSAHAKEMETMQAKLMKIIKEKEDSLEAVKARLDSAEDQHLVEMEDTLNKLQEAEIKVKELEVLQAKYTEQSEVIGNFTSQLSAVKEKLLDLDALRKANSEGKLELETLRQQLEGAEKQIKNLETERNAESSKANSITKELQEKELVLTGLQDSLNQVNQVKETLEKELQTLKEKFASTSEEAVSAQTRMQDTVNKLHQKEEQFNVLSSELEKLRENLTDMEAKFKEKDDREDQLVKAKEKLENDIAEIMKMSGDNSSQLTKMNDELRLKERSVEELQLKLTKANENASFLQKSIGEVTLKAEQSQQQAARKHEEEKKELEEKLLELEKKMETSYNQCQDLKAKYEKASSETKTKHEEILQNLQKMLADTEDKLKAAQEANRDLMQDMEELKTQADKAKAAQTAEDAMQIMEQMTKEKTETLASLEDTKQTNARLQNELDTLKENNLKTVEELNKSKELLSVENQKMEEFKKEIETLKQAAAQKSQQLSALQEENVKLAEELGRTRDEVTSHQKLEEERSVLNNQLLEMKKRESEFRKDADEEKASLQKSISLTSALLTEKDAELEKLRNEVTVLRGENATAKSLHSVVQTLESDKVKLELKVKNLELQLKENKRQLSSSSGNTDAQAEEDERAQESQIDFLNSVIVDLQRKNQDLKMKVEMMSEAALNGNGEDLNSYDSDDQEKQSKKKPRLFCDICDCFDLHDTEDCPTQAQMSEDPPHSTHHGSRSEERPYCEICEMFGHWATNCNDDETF
UniProt Q99KU0: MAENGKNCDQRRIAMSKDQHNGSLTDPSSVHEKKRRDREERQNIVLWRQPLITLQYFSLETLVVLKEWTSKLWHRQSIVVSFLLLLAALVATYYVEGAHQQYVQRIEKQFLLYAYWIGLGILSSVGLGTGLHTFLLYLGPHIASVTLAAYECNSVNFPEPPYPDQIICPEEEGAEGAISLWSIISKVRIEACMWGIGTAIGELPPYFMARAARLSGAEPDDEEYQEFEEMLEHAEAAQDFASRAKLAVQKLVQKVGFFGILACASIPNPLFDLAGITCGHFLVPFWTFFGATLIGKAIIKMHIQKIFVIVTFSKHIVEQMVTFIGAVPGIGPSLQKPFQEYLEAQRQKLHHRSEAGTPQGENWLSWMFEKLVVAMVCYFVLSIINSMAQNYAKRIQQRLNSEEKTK
UniProt Q99J64: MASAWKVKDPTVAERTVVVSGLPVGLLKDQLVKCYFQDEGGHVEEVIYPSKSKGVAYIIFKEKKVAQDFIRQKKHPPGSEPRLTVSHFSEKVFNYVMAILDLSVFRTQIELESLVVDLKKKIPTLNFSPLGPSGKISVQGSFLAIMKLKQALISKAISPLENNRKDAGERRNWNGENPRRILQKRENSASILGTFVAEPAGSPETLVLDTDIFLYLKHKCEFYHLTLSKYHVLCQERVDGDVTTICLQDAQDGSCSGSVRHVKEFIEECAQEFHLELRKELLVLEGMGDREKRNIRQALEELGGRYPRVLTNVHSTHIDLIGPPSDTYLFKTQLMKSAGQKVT
UniProt Q921Q3: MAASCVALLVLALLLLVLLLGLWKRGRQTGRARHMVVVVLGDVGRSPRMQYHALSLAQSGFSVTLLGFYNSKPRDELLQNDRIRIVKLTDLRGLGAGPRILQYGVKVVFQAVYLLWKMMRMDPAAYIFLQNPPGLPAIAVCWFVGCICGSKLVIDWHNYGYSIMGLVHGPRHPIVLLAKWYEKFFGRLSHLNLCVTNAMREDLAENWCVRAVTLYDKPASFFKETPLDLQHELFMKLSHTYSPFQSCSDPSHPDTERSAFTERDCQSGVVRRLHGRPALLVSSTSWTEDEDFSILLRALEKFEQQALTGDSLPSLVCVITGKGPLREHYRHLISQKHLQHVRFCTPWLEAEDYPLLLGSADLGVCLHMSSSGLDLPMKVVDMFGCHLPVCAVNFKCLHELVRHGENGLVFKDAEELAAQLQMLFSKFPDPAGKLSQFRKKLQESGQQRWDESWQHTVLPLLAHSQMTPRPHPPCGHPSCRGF
UniProt Q920N2: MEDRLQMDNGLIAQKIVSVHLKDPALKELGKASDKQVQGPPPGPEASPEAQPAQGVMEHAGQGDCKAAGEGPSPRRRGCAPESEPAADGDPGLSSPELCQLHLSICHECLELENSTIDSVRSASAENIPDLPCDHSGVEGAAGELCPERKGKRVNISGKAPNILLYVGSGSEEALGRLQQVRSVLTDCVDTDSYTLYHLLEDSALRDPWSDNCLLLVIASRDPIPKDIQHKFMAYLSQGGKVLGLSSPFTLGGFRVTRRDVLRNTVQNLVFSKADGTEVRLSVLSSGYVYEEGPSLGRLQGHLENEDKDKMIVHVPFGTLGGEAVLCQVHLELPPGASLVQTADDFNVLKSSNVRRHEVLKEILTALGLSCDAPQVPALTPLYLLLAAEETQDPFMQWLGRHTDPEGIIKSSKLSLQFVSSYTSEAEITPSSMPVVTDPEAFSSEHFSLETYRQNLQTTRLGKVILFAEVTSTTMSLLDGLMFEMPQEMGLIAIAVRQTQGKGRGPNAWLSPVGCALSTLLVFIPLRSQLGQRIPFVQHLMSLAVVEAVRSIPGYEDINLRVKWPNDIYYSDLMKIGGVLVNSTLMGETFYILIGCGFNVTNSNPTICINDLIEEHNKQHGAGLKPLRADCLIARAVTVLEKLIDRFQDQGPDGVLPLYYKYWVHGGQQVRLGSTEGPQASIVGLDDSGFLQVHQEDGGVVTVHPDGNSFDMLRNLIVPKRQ
UniProt Q921Z5: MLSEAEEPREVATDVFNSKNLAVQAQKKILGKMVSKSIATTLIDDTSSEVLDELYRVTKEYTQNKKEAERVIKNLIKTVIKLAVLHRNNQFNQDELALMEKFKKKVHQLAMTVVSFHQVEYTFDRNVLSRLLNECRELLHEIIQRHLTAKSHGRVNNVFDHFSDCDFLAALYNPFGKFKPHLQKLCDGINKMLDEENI

Each target was assayed with CN[C@@H]1C[C@H]2O[C@@](C)([C@@H]1OC)n1c3ccccc3c3c4c(c5c6ccccc6n2c5c31)C(=O)NC4 [staurosporine] (assay: log2 fold change of tryptic peptide abundance, ligand vs vehicle (limited proteolysis) (log2 ratio); higher = more trypsin-susceptible (destabilized)). Conditions: ligand concentration: 20 uM; sample: mouse liver crude lysate; replicate design: treated separately.
In the case of “UniProt Q921U8 (peptide sequence: QELEREEEALASKR, peptide start residue: 40)”, the log2 fold change is reported as -0.518. “UniProt Q99LC8 (peptide sequence: AQNKPFYVVAESFK, peptide start residue: 221)” showed a log2 fold change of -0.247. In the case of “UniProt Q922B1 (peptide sequence: LIICVFLEKDEGIYRER, peptide start residue: 299)”, the log2 fold change is reported as 0.437. Work on “UniProt Q922J3 (peptide sequence: VMAATPASLKR, peptide start residue: 298)” yielded a log2 fold change of 0.471. For “UniProt Q99KU0 (peptide sequence: IAMSKDQHNGSLTDPSSVHEKK, peptide start residue: 13)”, the log2 fold change was -0.222. In the case of “UniProt Q99J64 (peptide sequence: QALEELGGRYPR, peptide start residue: 297)”, the log2 fold change is reported as -0.35. Target “UniProt Q921Q3 (peptide sequence: PHPPCGHPSCR, peptide start residue: 470)” has a log2 fold change of -0.297. “UniProt Q920N2 (peptide sequence: LQMDNGLIAQK, peptide start residue: 5)” gave a log2 fold change of 0.207. “UniProt Q921Z5 (peptide sequence: NLAVQAQK, peptide start residue: 20)” was tested, and the log2 fold change was -0.142.
